These are yes or no findings as the source states them, for the method shown. In cells and extracts the contact can be indirect. A yes stands for co-enrichment or nearness to the bait. Other partners may have been found. Sequences can lack the tags named with a protein.
Molecular target: T1, HCP5‐132aa‐Flag (microprotein encoded by ORF15 of lncRNA HCP5), stably expressed in GC cells (human) (UniProt Q6MZN7)
T1 sequence: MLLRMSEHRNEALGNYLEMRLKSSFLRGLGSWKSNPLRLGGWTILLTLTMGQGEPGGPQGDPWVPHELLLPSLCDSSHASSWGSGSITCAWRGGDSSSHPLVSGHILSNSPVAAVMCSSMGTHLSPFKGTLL
Experiment: affinity purification with mass spectrometry; anti‐Flag immunoprecipitation from GC cells with stable HCP5‐132aa‐Flag (control EGFP‐Flag), SDS‐PAGE, silver staining, LC‐MS/MS

Amino acid sequences for entries named in this document (tags omitted).
UniProt Q15717: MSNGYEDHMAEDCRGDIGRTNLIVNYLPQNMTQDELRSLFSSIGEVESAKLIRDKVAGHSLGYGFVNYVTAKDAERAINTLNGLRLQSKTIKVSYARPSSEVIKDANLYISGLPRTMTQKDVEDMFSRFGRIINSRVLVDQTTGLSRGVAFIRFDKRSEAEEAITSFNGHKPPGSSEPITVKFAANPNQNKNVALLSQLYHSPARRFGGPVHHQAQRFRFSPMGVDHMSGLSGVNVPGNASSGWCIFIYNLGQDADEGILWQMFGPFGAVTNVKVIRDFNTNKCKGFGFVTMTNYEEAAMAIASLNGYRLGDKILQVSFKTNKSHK
UniProt P67809: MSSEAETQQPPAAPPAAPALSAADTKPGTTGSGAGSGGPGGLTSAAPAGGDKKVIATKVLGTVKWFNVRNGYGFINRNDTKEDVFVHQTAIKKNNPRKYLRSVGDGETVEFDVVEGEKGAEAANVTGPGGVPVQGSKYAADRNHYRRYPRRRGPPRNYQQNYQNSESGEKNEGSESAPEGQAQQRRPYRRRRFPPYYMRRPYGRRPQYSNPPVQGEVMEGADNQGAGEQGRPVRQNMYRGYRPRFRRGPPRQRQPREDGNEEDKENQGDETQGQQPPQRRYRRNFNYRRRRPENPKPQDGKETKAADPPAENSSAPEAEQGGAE

| binding | Substance |
| --- | --- |
| binds | ELAVL1, endogenous in GC cells (from UniProt Q15717 1-326) |
| binds | Y‐box binding protein 1 (YBX1), endogenous in GC cells (from UniProt P67809 1-324) |

Source: PMC11633528
